Results are given in words; binding and its absence hold for the method and conditions named. Binding seen in cells or lysates may run through a third protein. A result given as binding can be weak or reduced; the word gives no strength.
Target: endogenous Pim1 of BMDMs (mouse (endogenous in BMDMs)) (UniProt P06803)
Test: co-IP; endogenous proteins; BMDMs stimulated with LPS (100 ng ml^-1) for 1 h, immunoprecipitation with an anti-Pim1 antibody, immunoblot

Protein sequences, listed by entry. Tags and fused reporters are not part of them. Lines headed by an entry give the natural chain unless they say otherwise; changes in a name come on top.
UniProt P06803: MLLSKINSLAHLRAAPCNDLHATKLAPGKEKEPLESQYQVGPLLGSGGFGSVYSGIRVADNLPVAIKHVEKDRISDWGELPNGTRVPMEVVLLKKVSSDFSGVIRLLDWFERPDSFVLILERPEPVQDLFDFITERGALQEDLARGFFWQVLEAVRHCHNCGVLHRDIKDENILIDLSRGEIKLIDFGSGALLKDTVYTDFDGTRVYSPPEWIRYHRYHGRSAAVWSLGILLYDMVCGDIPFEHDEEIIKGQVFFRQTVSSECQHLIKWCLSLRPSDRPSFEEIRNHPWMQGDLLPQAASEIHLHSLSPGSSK
UniProt Q60803: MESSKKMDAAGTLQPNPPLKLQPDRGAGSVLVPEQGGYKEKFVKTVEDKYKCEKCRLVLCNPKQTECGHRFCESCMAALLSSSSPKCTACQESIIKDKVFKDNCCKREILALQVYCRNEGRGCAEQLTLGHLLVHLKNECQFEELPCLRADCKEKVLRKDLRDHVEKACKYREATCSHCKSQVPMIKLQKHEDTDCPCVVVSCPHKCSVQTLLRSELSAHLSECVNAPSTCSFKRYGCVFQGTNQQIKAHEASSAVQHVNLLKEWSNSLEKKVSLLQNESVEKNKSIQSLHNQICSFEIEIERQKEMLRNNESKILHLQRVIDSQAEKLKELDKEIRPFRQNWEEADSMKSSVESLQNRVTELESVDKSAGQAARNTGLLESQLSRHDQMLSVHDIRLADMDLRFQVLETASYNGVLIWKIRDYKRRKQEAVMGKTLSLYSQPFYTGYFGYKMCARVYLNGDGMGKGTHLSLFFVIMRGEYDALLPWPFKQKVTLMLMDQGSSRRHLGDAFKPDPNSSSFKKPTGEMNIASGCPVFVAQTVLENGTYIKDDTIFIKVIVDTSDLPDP

## endogenous TRAF3 of BMDMs (from UniProt Q60803 1-567)
  binding: binds

From paper PMC9722908
